# From patent publication US8497380B2, “Substituted acetophenones useful as PDE4 inhibitors” (Leo Pharma A/S, priority 2006, dated 2013)
# The chains behind the UniProt entries cited, without tags or fusion partners. Residues count along the entry.
# UniProt Q08499, 1-673 isoform Q08499-2: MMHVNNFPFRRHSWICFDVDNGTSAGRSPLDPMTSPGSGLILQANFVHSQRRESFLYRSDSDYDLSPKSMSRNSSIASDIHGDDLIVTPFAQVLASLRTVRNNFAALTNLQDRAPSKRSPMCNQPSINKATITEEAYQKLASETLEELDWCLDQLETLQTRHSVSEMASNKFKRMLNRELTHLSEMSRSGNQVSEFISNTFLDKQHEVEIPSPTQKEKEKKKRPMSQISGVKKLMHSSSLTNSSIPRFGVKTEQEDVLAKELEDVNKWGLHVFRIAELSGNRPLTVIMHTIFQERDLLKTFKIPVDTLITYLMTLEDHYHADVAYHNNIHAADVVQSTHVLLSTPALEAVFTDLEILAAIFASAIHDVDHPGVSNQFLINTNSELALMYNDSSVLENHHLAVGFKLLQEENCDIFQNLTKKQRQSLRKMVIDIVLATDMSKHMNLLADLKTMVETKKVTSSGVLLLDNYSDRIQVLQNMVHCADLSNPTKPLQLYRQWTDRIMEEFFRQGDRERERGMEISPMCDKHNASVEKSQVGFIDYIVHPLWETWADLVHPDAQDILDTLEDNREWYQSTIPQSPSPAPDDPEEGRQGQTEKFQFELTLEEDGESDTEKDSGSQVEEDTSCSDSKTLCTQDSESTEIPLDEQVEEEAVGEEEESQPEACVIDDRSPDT
# Some results were stated once for a whole list of compounds, not compound by compound. For some assays here: For at least one compound, name, drawing or mass did not settle the structure.
# Target: Human recombinant PDE4 (Gene bank accession no NM—006203) (Homo sapiens, UniProt Q08499)
# Assay: PDE4 Assay
# Format: biochemical
# Conditions: 50% inhibition of substrate (cAMP) cleavage; 1 hour incubation; test compound up to 10 uM; SPA beads
row,SMILES,−log IC50 (M)
1,"COc1ccc(C(=O)Cc2c(Cl)cncc2Cl)c(OCCc2cccnc2)c1OC [Compound 280, 2-(3,5-Dichloro-pyridin-4-yl)-1-[3,4-dimethoxy-2-(2-pyridin-3-yl-ethoxy)-phenyl]-ethanone]",above 6 M
2,"COc1ccc(C(=O)Cc2c(Cl)cncc2Cl)c(OCCc2ccc([S+](C)[O-])cc2)c1OC (centres unmarked) [Compound 281, 2-(3,5-Dichloro-pyridin-4-yl)-1-{2-[2-(4-methanesulfinyl-phenyl)-ethoxy]-3,4-dimethoxy-phenyl}-ethanone]",above 6 M
3,"COc1ccc(C(=O)Cc2c(Cl)cncc2Cl)c(OCCc2ccc(S(C)(=O)=O)cc2)c1OC [Compound 282, 2-(3,5-Dichloro-pyridin-4-yl)-1-{2-[2-(4-methanesulfonyl-phenyl)-ethoxy]-3,4-dimethoxy-phenyl}-ethanone]",above 6 M
4,"CCC(Oc1c(C(=O)Cc2c(Cl)cncc2Cl)ccc(OC)c1OC)c1ccccc1 (centres unmarked) [Compound 283, 2-(3,5-Dichloro-pyridin-4-yl)-1-[3,4-dimethoxy-2-(1-phenyl-propoxy)-phenyl]-ethanone]",above 6 M
5,"COc1ccc(C(=O)Cc2c(Cl)cncc2Cl)c(OCC(C)c2ccccc2)c1OC (centres unmarked) [Compound 284, 2-(3,5-Dichloro-pyridin-4-yl)-1-[3,4-dimethoxy-2-(2-phenyl-propoxy)-phenyl]-ethanone]",above 6 M
6,"COc1ccc(C(=O)Cc2c(Cl)cncc2Cl)c(OC(C)Cc2ccccc2)c1OC (centres unmarked) [Compound 285, 2-(3,5-Dichloro-pyridin-4-yl)-1-[3,4-dimethoxy-2-(1-methyl-2-phenyl-ethoxy)-phenyl]-ethanone]",above 6 M
7,"CCCNC(=O)COc1c(C(=O)Cc2nccnc2Br)ccc(OC)c1OC [Compound 287, 2-{6-[2-(3-Bromo-pyrazin-2-yl)-acetyl]-2,3-dimethoxy-phenoxy}-N-propyl-cetamide]",above 6 M
8,"CCCNC(=O)COc1c(C(=O)Cc2c(Cl)cccc2Cl)ccc(OC)c1OC [Compound 288, 2-{6-[2-(2,6-Dichloro-phenyl)-acetyl]-2,3-dimethoxy-phenoxy}-N-propyl-acetamide]",above 6 M
9,"CCCNC(=O)COc1c(C(=O)Cc2ccncc2)ccc(OC)c1OC [Compound 289, 2-(2,3-Dimethoxy-6-(2-pyridin-4-yl-acetyl)-phenoxy)-N-propyl-acetamide]",above 6 M
10,CCCNC(=O)COc1c(C(=O)Cc2ccnc3ccccc23)ccc(OC)c1OC [Compound 290],above 6 M
11,"CCCNC(=O)COc1c(C(=O)Cc2ccncc2Br)ccc(OC)c1OC [Compound 292, 2-{6-[2-(3-Bromo-pyridin-4-yl)-acetyl]-2,3-dimethoxy-phenoxy}-N-propyl-acetamide]",above 6 M
12,"CCCNC(=O)COc1c(C(=O)Cc2c(Br)cncc2Br)ccc(OC)c1OC [Compound 293, 2-{6-[2-(3,5-Dibromo-pyridin-4-yl)-acetyl]-2,3-dimethoxy-phenoxy}-N-propyl-acetamide]",above 6 M
13,"CCCNC(=O)COc1c(C(=O)Cc2cccnc2Cl)ccc(OC)c1OC [Compound 296, 2-{6-[2-(2-Chloro-pyridin-3-yl)-acetyl]-2,3-dimethoxy-phenoxy}-N-propyl-acetamide]",above 6 M
14,"COc1ccc(C(=O)Cc2c(Cl)cnc(N)c2Cl)c(OCCc2ccc(F)cc2)c1OC [Compound 301, 2-(2-amino-3,5-dichloro-pyridin-4-yl)-1-{2-[2-(4-fluoro-phenyl)-ethoxy]-3,4-dimethoxy-phenyl}-ethanone]",above 6 M
15,"CCOc1ccc(C(=O)Cc2c(Cl)cncc2Cl)c(OCCc2ccccc2)c1OC [Compound 302, 2-(3,5-Dichloro-pyridin-4-yl)-1-(4-ethoxy-3-methoxy-2-phenethyloxy-phenyl)-ethanone]",above 6 M

# System: Human peripheral blood mononuclear cells (PBMC)
# Assay: TNFalfa-Release
# Format: cell-based
# Conditions: inhibition of TNF-a secretion; PBMC pre-incubated 30 minutes, stimulated 18 hours with lipopolysaccharide
# Procedure: Human peripheral blood mononuclear cells (PBMC) are Isolated from buffy coats. The blood is mixed with saline at a ratio of 1:1, and the PBMC is isolated by the use of Lymphoprep Tubes™ (Nycomed, Norway). The PBMC is suspended in RPMI1640 with 2% foetal calf serum (FCS), pen/strep and 2 mM L-glutamine at a concentration of 5×105 c/ml. The cells are pre-incubated for 30 minutes with the test compounds in 96 well tissue culture plates and stimulated for 18 hours with lipopolysaccharide 1 mg/ml (Sigma). The level of TNF-a is measured in the culture supernatant by enzyme immuno assays using primary and secondary biotinylated antibodies from R&D systems. Results are expressed as pIC50 values calculated from inhibition curves using as positive controls the secretion in LPS stimulated wells and as negative controls the secretion in unstimulated cells.
row,SMILES,−log IC50 (M)
1,"COc1ccc(C(=O)Cc2c(Cl)c[n+]([O-])cc2Cl)c(OCCc2cc[n+]([O-])cc2)c1OC [Compound 274, 2-(3,5-Dichloro-1-oxy-pyridin-4-yl)-1-{3,4-dimethoxy-2-[2-(1-oxy-pyridin-4-yl)-ethoxy]-phenyl}-ethanone]",above 6 M
2,"COc1ccc(C(=O)Cc2c(Cl)c[n+]([O-])cc2Cl)c(O)c1OC [Compound 275, 2-(3,5-Dichloro-1-oxy-pyridin-4-yl)-1-(2-hydroxy-3,4-dimethoxy-phenyl)-ethanone]",above 6 M
